Measurements reported in patent publication US7468281B2, “Hollow fiber membrane sample preparation devices” (priority 2001, dated 2008).
For at least one compound, name, drawing or mass did not settle the structure.

Assay: LPME of drugs from human plasma, urine and whole blood with vial format device, CZE analysis
Type: physicochemical

For `CN(C)CCCC1(c2ccc(F)cc2)OCc2cc(C#N)ccc21` (centres unmarked) [Citalopram, citalopram], the Enrichment (human whole blood 2.5 mL, 280 μm ID polypropylene fiber, hexyl ether, 17 μL 0.1 M hydrochloric acid acceptor, 30 minutes) was “one hundred” and the Preconcentration (patient plasma 1 mL, hexyl ether membrane, 20 mM phosphate buffer pH 2.75 acceptor, 45 minutes) was 30 fold.
